PubChem BioAssay AID1259405 – NCATS | 2018

- Aim: 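Mouse-designed siRNAs used to find CHO productivity engineering targets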 (primary screen)
- System: Chinese hamster CHO-K1 ovary cells with stable secreted eGFP expression
- Knock-down reagent: single siRNA against mouse genes, 0.8 pmol siRNA per well (2 µl of 400 nM stock)
- Timing: 3 days
- Detection: 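Per-well intracellular GFP measured by laser scanning cytometry, plus viability from ATP luminescence, each relative to plate median of non-targeting control wells, in %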
- Reading the numbers: GFP, % of control: higher = more GFP per well, higher productivity; viability (ATP), % of control: higher = more viable cells (more ATP)
- Active means: 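a knock-down is called active if GFP reaches 120% or more of non-targeting control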
Here is a random part of about 50,000 deposited reagents. About 4,000 of them (8%) were called active. 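Mouse siRNA library applied to hamster cells; one well for each siRNA.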 Reagents against one gene are numbered here.

For Acat1 #1, what does the deposit list?
GFP, % of control: 74.8; viability (ATP), % of control: 73.9; outcome: inactive

How did the screen score Acat1 #2?
GFP, % of control: 133; viability (ATP), % of control: 139; outcome: active

With Acat1 #3, what does the deposit list?
GFP, % of control: 88.2; viability (ATP), % of control: 101; outcome: inactive

How did the screen score Crebrf #1?
GFP, % of control: 42; viability (ATP), % of control: 36; outcome: inactive

For Crebrf #2, what was measured?
GFP, % of control: 30.6; viability (ATP), % of control: 65.6; outcome: inactive

With Crebrf #3, what was measured?
GFP, % of control: 62.4; viability (ATP), % of control: 69.9; outcome: inactive

Which result is listed for Setmar #1?
GFP, % of control: 110; viability (ATP), % of control: 122; outcome: inactive

How did the screen score Setmar #2?
GFP, % of control: 60.1; viability (ATP), % of control: 55.4; outcome: inactive

With Cnih1 #1, what was measured?
GFP, % of control: 75.3; viability (ATP), % of control: 72.3; outcome: inactive

How did the screen score Cnih1 #2?
GFP, % of control: 65.4; viability (ATP), % of control: 64.7; outcome: inactive

For Cnih1 #3, what was measured?
GFP, % of control: 81.4; viability (ATP), % of control: 79.2; outcome: inactive

For Sec14l1 #1, what was measured?
GFP, % of control: 99.2; viability (ATP), % of control: 92.7; outcome: inactive

For Sec14l1 #2, how do the results read?
GFP, % of control: 44.9; viability (ATP), % of control: 73.3; outcome: inactive

How did the screen score Sec14l1 #3?
GFP, % of control: 51.1; viability (ATP), % of control: 81.9; outcome: inactive

For Sptlc1 #1, how do the results read?
GFP, % of control: 81.3; viability (ATP), % of control: 80; outcome: inactive

How did the screen score Sptlc1 #2?
GFP, % of control: 71.8; viability (ATP), % of control: 101; outcome: inactive

For Sptlc1 #3, how do the results read?
GFP, % of control: 107; viability (ATP), % of control: 100; outcome: inactive

Taken from above:
Under “GFP, % of control”, Cnih1 #3 is entered as 81.4
Sptlc1 #3, outcome = inactive
